Source: US20240400678A1
Results are given in words; binding and its absence hold for the method and conditions named. Some results given as binding are weak or reduced against the parent protein; the word gives no strength.

Assays:
[1] = molecular target: T1, human Siglec-15 (Sialic acid-binding Ig-like lectin 15) on in vitro differentiated human osteoclasts (human) (UniProt Q6ZMC9); assay: fluorescence imaging of AF-647 conjugated antibody on human osteoclasts
T1 sequence: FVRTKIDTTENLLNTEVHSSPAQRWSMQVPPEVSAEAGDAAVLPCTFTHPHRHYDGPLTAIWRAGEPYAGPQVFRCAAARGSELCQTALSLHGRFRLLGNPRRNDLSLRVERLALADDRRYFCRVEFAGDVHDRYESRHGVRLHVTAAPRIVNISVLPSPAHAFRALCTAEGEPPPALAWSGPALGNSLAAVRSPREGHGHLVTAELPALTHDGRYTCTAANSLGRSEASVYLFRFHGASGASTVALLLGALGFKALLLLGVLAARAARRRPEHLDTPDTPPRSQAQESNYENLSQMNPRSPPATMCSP

[2] = molecular target: T1, human Siglec-15 (Sialic acid-binding Ig-like lectin 15) on in vitro differentiated human osteoclasts (human); assay: imaging (Opera Phenix) of AF647-conjugated antibody on in vitro differentiated human osteoclasts

B1: mouse anti-human Siglec-15 monoclonal antibody 1H3 (antibody, V domains shown)
VH: QVQLKESGPGLVAPSQSLSITCTVSGFSLSNYGVHWVRQPPGKGLEWLVLIWSDGSTTYNSALKSRLSISKDNSKSQVFLKMNSLQTGDTAMYYCARHPYDDYSGYYYTMDYWGQGTSVTVSS
VL: DIQMTQASSSLSVSLGGRVTITCKASDHINNWLAWYQQKPGNAPRLLISGATSLETGVPSRFSGSGSGKDYTLSITSLQTEDVATYYCQQYWSSPLTFGAGTKLELK
binding [1]: binds
binding [2]: binds
